In PMC8473724:
No constants are given. Whether binding was seen depends on the method and setting. In cells and extracts the contact can be indirect. A yes stands for co-enrichment or nearness to the bait. Other partners may have been found. Sequences can lack the tags named with a protein.

The chains behind the UniProt entries cited, without tags or fusion partners. Residues count along the entry.
UniProt P11912, residues 33-226: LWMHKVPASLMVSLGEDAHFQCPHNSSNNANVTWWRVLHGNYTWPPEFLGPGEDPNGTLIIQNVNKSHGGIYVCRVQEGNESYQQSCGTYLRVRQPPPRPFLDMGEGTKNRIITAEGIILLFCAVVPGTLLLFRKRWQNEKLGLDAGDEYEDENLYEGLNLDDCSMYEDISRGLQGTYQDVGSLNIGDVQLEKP
UniProt Q06481, residues 32-763: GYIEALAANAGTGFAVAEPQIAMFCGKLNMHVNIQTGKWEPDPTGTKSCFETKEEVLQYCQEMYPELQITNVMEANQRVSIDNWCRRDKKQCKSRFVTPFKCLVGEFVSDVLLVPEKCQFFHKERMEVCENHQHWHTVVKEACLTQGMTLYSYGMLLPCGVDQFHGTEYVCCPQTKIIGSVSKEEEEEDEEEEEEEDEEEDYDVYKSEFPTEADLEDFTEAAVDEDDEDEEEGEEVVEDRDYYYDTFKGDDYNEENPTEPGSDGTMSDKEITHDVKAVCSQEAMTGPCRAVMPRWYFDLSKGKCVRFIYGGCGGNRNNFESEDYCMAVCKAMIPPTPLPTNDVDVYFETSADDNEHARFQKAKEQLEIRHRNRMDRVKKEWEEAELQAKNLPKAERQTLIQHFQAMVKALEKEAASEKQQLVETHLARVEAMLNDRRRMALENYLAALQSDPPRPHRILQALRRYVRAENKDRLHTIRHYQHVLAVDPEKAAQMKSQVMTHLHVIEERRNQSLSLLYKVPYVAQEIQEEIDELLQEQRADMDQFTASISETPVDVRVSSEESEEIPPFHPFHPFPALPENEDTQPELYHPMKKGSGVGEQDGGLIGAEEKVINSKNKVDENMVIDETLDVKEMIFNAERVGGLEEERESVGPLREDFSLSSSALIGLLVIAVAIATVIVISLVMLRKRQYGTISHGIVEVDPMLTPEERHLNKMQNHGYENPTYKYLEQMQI
UniProt Q06187: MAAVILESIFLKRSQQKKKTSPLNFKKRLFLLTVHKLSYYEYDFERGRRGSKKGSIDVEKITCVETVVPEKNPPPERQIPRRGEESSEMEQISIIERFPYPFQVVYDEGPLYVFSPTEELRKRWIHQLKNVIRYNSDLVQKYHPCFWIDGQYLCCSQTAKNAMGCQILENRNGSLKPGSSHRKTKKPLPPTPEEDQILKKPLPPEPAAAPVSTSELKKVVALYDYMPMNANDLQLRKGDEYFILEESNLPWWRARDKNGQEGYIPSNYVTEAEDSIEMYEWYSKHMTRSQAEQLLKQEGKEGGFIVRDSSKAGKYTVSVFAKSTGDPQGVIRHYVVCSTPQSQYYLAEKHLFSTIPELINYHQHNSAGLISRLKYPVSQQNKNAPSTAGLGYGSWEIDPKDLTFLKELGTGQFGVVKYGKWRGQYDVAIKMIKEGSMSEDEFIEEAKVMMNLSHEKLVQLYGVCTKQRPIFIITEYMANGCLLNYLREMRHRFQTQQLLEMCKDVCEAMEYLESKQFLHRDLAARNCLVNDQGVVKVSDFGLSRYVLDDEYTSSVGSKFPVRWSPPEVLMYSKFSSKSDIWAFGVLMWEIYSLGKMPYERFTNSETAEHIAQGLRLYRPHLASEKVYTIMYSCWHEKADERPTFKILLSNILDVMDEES
UniProt P20273, residues 20-847: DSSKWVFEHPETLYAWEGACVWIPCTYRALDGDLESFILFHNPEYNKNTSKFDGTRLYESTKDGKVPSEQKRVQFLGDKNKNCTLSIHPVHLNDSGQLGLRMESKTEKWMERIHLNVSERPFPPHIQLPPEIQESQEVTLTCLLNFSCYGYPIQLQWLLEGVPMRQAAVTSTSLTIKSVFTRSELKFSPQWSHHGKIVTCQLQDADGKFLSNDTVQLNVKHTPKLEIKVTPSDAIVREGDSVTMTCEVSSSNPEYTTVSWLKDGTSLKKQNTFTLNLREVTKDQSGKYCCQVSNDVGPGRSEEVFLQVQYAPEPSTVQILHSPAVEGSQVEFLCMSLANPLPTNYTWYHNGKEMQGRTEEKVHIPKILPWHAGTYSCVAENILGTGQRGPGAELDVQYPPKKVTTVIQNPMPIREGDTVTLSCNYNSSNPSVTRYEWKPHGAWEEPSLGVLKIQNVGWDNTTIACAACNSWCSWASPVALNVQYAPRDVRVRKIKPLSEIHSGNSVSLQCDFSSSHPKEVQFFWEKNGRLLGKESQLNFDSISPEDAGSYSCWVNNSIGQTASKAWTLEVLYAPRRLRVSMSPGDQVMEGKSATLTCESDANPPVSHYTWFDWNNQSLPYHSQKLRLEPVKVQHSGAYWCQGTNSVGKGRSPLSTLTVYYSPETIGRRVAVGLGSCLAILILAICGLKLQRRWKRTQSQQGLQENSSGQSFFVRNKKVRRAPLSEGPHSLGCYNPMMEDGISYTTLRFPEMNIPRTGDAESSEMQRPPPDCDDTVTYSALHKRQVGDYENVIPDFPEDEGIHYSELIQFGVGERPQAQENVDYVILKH

Target: T1, FLAG-PTP1B D181A-Y46F substrate trapping mutant (full-length) (UniProt P18031)
T1 sequence: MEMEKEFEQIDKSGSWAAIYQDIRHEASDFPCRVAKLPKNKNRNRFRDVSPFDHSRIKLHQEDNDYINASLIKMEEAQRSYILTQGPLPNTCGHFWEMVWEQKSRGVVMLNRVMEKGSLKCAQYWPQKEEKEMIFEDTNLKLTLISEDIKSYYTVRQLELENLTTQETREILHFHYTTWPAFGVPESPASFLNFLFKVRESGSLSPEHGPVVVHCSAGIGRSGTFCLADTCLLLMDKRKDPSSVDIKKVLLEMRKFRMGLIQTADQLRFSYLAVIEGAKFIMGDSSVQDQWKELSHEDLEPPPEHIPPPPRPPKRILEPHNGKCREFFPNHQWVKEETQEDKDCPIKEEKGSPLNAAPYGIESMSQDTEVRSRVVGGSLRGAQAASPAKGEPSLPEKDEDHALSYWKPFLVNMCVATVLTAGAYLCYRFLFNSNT
Test: affinity purification with mass spectrometry; SILAC substrate trapping: anti-FLAG co-IP from PTP1B KO Ramos cells with empty vector, FLAG-PTP1B-D181A-Y46F or its Δ406-435 form; elution with FLAG peptide, SDS-PAGE, in-gel digestion, LC-MS; hits: mean SILAC ratio >= 2 and P < 0.05 (n = 3)

Substance | binding
Igα (CD79A), BCR signaling subunit α chain (from UniProt P11912 33-226) (receptor) | binds
amyloid-like protein 2 (APLP2) (from UniProt Q06481 32-763) | binds
Bruton tyrosine kinase (BTK) (from UniProt Q06187 1-659) (enzyme) | binds
CD22 (cluster of differentiation-22), endogenous (from UniProt P20273 20-847) (receptor) | binds
